Test results as given in PubChem BioAssay AID330 (DTP/NCI, 2004).
The list shows only some results of the screen, not a fair sample: it is rich in T/C values a quarter to a half above the control, in often repeated tests (any T/C) and in doses without a T/C. Other doses and runs of a compound stand elsewhere. T/C: endpoint of the treated group in % of that of the vehicle group. Some entries give survivors of the animals treated and no T/C: the source holds a T/C of zero for them, seemingly a mark for toxic or unscored doses. Some survivor counts are full or nearly so, which does not show that the dose was tolerated: the source hardly ever lists a survival T/C far under the control, and the zero likely stands for such cases as well. Counts of survivors are from the toxicity check (mostly the fifth day) where no day follows; animals may have died later. Schedule codes are those of the source, taken here to give the interval after Q, in days (D) or hours (H), and the number of doses after X. Some doses were run more than once; the values are given in rising order. For survival time, this PubChem deposit counts one and a half times the control or more as active, and values a quarter to a half above the control carry no call in these data; other NCI protocols may use other cut-offs. Some T/C values carry the count of animals alive at the toxicity check (mostly the fifth day); without a count, all were alive then.

System: P388 leukemia ip, CD2F1 mice, survival T/C
Test: NCI In Vivo Anticancer Drug Screen. Data for tumor model P388 Leukemia (intraperitoneal) in CD2F1 (CDF1) mice
Details: T/C endpoint: median survival time, higher T/C = longer survival
[1] = dose: 200.0 mg/kg/injection, schedule: Q01DX005 (ip), vehicle: saline with Tween-80
[2] = dose: 200.0 mg/kg/injection, schedule: Q01DX009 (ip), vehicle: saline
[3] = dose: 50.0 mg/kg/injection, schedule: Q01DX005 (ip), vehicle: saline with Tween-80
[4] = dose: 100.0 mg/kg/injection, schedule: Q01DX005 (ip), vehicle: saline with Tween-80
[5] = dose: 400.0 mg/kg/injection, schedule: Q01DX009 (ip), vehicle: saline with Tween-80
[6] = dose: 100.0 mg/kg/injection, schedule: Q01DX009 (ip), vehicle: saline
[7] = dose: 400.0 mg/kg/injection, schedule: Q01DX001 (ip), vehicle: saline with Tween-80
[8] = dose: 200.0 mg/kg/injection, schedule: Q01DX005 (ip), vehicle: Klucel (hydroxypropylcellulose) (HPC)
[9] = dose: 25.0 mg/kg/injection, schedule: Q01DX009 (ip), vehicle: saline
[10] = dose: 50.0 mg/kg/injection, schedule: Q01DX009 (ip), vehicle: saline
[11] = dose: 100.0 mg/kg/injection, schedule: Q01DX005 (ip), vehicle: Klucel (hydroxypropylcellulose) (HPC)
[12] = dose: 50.0 mg/kg/injection, schedule: Q01DX005 (ip), vehicle: Klucel (hydroxypropylcellulose) (HPC)

C=CCOc1cc2c(cc1C(C)c1ccc(OCC)cc1)OCO2 (stereo unspecified)
T/C (dose: 400.0 mg/kg/injection, schedule: Q01DX005 (ip), vehicle: saline with Tween-80): 141 % of control

Cc1ccc(S(=O)(=O)Nc2nnc(-c3coc4ccc(C)cc4c3=O)s2)cc1
survivor count [1]: 6 of 6

CC(CN1CCOCC1)(CN1CCOCC1)[N+](=O)[O-]
survivor count [2]: 2 of 6

C=C(CCCC)N1CCN=N1
survivor count [3]: 0 of 5 | survivor count [4]: 0 of 5 | survivor count [1]: 0 of 5

S=c1sscc1-c1ccc2ccccc2c1
survivor count (dose: 100.0 mg/kg/injection, schedule: Q04DX003 (ip), vehicle: saline with Tween-80): 6 of 6

CCCCCCC[CH2][Sn]([CH2]C)([CH2]C)[O]C(C)=O
survivor count (dose: 0.5 mg/kg/injection, schedule: Q01DX009 (ip), vehicle: saline with Tween-80): 2 of 6 | survivor count (dose: 1.0 mg/kg/injection, schedule: Q01DX009 (ip), vehicle: saline with Tween-80): 1 of 6

c1ccc(-c2nc3ccccc3nc2-c2ccc(-c3nc4ccccc4nc3-c3ccccc3)cc2)cc1
survivor count (dose: 25.0 mg/kg/injection, schedule: Q01DX009 (ip), vehicle: saline with Tween-80): 6 of 6

CCOC1=C(N2CC2)C(=O)C(OCC)=C(N2CC2)C1=O
T/C (dose: 0.63 mg/kg/injection, schedule: Q01DX009 (ip), vehicle: saline): 149 % of control

COc1ccc(C2=NOP(c3ccccc3)(c3ccccc3)(c3ccccc3)C2)cc1
survivor count (dose: 50.0 mg/kg/injection, schedule: Q01DX009 (ip), vehicle: other): 0 of 6 | survivor count (dose: 100.0 mg/kg/injection, schedule: Q01DX009 (ip), vehicle: other): 0 of 6 | survivor count (dose: 200.0 mg/kg/injection, schedule: Q01DX009 (ip), vehicle: other): 0 of 6 | survivor count (dose: 400.0 mg/kg/injection, schedule: Q01DX009 (ip), vehicle: other): 0 of 6

CC[N+]1=C(C2=NCCc3ccccc32)c2ccccc2CC1
survivor count [4]: 0 of 5 | survivor count [1]: 0 of 5

C[C@@H]1CN(C(=O)CCOS(C)(=O)=O)[C@@H](C)CN1C(=O)CCOS(C)(=O)=O
T/C (dose: 12.5 mg/kg/injection, schedule: Q04DX003 (ip), vehicle: saline): 145 % of control | survivor count (dose: 600.0 mg/kg/injection, schedule: Q04DX003 (ip), vehicle: saline with Tween-80): 4 of 6

CC1(C)CC2(C)OC2C2(C1)N=NC(=O)O2 (stereo unspecified)
survivor count (dose: 200.0 mg/kg/injection, schedule: Q01DX009 (ip), vehicle: saline with Tween-80): 5 of 6 | survivor count [5]: 0 of 6

O=C(NO)C(O)C(O)C(O)C(O)CO (stereo unspecified)
survivor count [6]: 6 of 6

O=[N+]([O-])c1ccc2nc3c4ccccc4c4ccccc4c3nc2c1
survivor count [5]: 0 of 6

CCC[CH2][Sn]1([CH2]CCC)[O]C(=O)CC[S]1
T/C (dose: 12.5 mg/kg/injection, schedule: Q01DX005 (ip), vehicle: saline with Tween-80): 130 % of control [4 of 6 alive] | survivor count (dose: 25.0 mg/kg/injection, schedule: Q01DX005 (ip), vehicle: saline with Tween-80): 0 of 6 and 1 of 6 | survivor count [3]: 1 of 6 | survivor count [4]: 0 of 6 | survivor count [1]: 0 of 6

CC(C)CC(NC(=O)OC(C)(C)C)C(=O)ON1C(=O)CCC1=O (stereo unspecified)
survivor count [1]: 1 of 6

OC1(c2ccc(F)cc2)CCNCC1
survivor count (dose: 240.0 mg/kg/injection, schedule: Q01DX005 (ip), vehicle: Klucel (hydroxypropylcellulose) (HPC)): 0 of 6

COC(=O)C1(C)CC2C(C)(CCC3(C)C4=CC=C5C(=CC(=O)C(O)=C5C)C4(C)CCC23C)CC1O (stereo unspecified)
survivor count (dose: 200.0 mg/kg/injection, schedule: Q01DX001 (ip), vehicle: saline with Tween-80): 0 of 6 | survivor count [7]: 0 of 6

c1ccc(CN2COCO[C@H]3CCC[C@@H]32)cc1
survivor count [8]: 0 of 6

CCN(CC)CCCC(C)Nc1nccc2c(Cl)cccc12 (stereo unspecified)
survivor count (dose: 200.0 mg/kg/injection, schedule: Q01DX005 (ip), vehicle: saline): 0 of 5

NC(CCl)=NCC12CC3CC(CC(C3)C1)C2
T/C (dose: 12.5 mg/kg/injection, schedule: Q01DX009 (ip), vehicle: saline): 126 % of control | T/C (dose: 25.0 mg/kg/injection, schedule: Q01DX009 (ip), vehicle: Klucel (hydroxypropylcellulose) (HPC)): 128 % of control | T/C [9]: 139 % of control | survivor count (dose: 50.0 mg/kg/injection, schedule: Q01DX009 (ip), vehicle: Klucel (hydroxypropylcellulose) (HPC)): 3 of 6 | survivor count [10]: 3 of 6 | survivor count [6]: 0 of 6 | survivor count [2]: 0 of 6

CCOC(=O)CSc1cc(O)c2ccccc2c1N=Nc1ccc(C(=O)O)cc1
survivor count [3]: 6 of 6

CNCCC1CCCCC1
survivor count [11]: 3 of 5 | survivor count [8]: 0 of 5

CN(C)c1ccsc(=S)c1
survivor count [12]: 0 of 6 | survivor count [11]: 3 of 6 | survivor count [8]: 0 of 6

Cc1nn(-c2ccc(S(=O)(=O)[O-])cc2)c([O-])c1N=[N+](C)c1ccc(-c2ccc(N=Nc3ccc4c(S(=O)(=O)[O-])cc(S(=O)(=O)[O-])c(N)c4c3[O-])c([O-])c2)cc1[O-].[Cu+2].[Cu+2].[Na+]
survivor count (dose: 3.12 mg/kg/injection, schedule: Q01DX009 (ip), vehicle: saline with Tween-80): 6 of 6 | survivor count (dose: 6.25 mg/kg/injection, schedule: Q01DX009 (ip), vehicle: saline with Tween-80): 6 of 6 | survivor count [9]: 6 of 6 | survivor count [10]: 6 of 6 | survivor count [6]: 5 of 6 | survivor count [2]: 6 of 6

C1CN(CC2CCC(CN3CCOCC3)O2)CCO1 (stereo unspecified)
T/C (dose: 12.5 mg/kg/injection, schedule: Q01DX005 (ip), vehicle: Klucel (hydroxypropylcellulose) (HPC)): 125 % of control | survivor count (dose: 25.0 mg/kg/injection, schedule: Q01DX005 (ip), vehicle: Klucel (hydroxypropylcellulose) (HPC)): 2 of 6 | survivor count [12]: 4 of 5 | survivor count [11]: 0 of 5 | survivor count [8]: 0 of 5

CC(=O)N(C(C)=O)c1cnc2c(nc3cc(C)ccn32)c1C
survivor count [7]: 1 of 6

C=CCN1CCC23c4c5ccc(O)c4OC2C(=NN=C2CCC4(O)C6Cc7ccc(O)c8c7C4(CCN6CC=C)C2O8)CCC3(O)C1C5 (stereo unspecified)
survivor count (dose: 120.0 mg/kg/injection, schedule: Q01DX005 (ip), vehicle: saline with Tween-80): 2 of 6 | survivor count (dose: 240.0 mg/kg/injection, schedule: Q01DX005 (ip), vehicle: saline with Tween-80): 0 of 6
